Measured values taken from PMC5775985.
No constants are given. Whether binding was seen depends on the method and setting. Binding seen in cells or lysates may run through a third protein. Some entries that bind do so weakly or less than the wild type. One block for each substance: values may come before it.

Chains of the proteins cited; added tags and fusions are not shown.
UniProt P18901: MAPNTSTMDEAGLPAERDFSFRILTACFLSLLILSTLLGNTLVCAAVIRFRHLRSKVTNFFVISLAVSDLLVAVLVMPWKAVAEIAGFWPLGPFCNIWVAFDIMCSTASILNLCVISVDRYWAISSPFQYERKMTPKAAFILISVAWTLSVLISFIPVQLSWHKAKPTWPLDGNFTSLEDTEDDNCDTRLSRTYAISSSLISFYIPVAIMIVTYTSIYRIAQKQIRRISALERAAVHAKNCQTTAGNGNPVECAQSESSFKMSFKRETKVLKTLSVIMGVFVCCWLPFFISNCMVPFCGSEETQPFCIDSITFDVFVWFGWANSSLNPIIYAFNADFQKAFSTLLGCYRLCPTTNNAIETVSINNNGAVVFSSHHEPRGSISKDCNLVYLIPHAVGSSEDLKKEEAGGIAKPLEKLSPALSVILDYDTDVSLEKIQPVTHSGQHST
UniProt P29994: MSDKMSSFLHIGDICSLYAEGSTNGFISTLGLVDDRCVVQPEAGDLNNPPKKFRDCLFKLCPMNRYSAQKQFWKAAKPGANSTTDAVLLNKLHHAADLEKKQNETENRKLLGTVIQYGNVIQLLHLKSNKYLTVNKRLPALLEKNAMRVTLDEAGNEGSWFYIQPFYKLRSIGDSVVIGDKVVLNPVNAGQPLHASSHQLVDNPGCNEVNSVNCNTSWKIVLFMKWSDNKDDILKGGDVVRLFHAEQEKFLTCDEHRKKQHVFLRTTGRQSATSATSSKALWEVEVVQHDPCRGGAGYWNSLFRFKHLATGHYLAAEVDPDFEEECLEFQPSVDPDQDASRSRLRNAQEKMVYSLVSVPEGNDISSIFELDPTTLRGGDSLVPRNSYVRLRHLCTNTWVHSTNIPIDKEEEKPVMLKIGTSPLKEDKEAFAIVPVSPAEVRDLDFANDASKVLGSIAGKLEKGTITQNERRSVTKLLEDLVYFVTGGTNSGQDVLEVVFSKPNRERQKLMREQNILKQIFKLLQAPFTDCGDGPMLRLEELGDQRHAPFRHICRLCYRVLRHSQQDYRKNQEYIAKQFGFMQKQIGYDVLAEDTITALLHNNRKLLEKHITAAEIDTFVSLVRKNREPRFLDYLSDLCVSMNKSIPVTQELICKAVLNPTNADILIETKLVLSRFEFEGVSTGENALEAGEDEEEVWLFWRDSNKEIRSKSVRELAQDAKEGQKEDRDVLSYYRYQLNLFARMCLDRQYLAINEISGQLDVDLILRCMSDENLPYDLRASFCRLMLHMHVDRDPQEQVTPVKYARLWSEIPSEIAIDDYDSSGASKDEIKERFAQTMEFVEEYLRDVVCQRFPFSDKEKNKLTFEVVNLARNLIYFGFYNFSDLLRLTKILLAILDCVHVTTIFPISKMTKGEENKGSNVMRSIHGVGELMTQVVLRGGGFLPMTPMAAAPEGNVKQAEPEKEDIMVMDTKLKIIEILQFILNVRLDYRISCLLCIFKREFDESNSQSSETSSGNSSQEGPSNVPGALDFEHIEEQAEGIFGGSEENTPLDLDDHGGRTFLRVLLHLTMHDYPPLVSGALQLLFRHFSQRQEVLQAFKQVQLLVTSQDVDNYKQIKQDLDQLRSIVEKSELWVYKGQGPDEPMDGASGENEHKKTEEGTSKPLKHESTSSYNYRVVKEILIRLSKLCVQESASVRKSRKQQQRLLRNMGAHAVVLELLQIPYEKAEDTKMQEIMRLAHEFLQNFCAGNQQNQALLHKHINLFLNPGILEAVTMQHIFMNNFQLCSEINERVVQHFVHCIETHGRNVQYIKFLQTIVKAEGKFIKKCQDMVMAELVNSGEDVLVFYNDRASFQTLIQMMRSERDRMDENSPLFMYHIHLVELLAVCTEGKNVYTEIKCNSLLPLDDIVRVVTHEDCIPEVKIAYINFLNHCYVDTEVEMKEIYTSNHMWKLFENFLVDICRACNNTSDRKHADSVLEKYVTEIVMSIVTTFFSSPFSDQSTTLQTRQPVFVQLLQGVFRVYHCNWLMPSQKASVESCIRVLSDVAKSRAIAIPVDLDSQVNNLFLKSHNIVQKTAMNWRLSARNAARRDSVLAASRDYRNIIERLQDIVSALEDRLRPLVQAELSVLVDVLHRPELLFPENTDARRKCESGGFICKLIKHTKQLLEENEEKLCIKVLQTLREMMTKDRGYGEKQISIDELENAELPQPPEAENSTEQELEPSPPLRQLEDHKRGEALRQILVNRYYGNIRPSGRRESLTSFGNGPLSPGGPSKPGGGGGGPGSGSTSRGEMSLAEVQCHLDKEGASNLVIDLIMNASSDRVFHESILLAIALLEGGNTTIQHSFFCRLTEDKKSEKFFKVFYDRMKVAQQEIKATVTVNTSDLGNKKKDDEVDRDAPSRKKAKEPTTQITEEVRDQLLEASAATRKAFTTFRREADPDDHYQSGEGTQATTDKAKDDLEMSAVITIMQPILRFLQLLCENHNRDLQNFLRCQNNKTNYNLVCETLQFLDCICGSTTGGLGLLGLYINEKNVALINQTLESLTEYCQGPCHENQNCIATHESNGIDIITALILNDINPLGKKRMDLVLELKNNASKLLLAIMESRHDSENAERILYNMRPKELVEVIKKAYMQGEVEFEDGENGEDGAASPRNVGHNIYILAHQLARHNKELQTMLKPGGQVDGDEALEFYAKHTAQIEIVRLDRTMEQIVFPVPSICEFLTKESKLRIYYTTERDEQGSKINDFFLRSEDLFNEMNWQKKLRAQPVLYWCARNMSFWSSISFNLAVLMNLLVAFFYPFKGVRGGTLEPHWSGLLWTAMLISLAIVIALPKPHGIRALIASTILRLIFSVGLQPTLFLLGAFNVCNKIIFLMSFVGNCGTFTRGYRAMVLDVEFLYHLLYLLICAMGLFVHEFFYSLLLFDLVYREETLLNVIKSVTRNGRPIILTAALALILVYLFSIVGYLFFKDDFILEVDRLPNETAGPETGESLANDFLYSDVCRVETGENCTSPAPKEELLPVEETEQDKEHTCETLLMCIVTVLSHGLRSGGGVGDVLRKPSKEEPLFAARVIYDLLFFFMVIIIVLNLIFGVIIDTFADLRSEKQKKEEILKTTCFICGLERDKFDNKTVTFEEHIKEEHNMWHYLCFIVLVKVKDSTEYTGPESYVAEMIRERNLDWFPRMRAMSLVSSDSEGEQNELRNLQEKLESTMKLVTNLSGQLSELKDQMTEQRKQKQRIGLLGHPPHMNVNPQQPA
UniProt Q9R0C9: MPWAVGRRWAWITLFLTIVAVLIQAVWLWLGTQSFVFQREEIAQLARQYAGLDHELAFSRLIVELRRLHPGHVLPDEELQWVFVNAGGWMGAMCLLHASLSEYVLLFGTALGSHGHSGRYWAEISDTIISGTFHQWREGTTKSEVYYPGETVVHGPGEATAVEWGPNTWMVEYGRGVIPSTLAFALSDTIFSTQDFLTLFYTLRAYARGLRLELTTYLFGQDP
UniProt P61169: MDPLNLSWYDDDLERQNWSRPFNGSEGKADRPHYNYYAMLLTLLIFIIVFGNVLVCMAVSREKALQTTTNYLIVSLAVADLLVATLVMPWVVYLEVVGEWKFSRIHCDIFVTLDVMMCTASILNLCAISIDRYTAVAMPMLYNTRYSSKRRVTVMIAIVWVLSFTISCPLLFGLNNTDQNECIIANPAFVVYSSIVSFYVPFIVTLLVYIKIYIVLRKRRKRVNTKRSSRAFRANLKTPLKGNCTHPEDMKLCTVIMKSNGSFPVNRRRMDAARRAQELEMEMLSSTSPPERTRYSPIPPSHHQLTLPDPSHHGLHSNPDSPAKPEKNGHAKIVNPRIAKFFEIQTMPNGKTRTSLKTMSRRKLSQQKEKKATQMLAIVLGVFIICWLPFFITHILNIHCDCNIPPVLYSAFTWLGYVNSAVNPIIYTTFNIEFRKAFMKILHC

Columns and labels:
[1] = biological target: dopamine receptor D1 (mouse or rat (endogenous in NG-108, a mouse-rat hybrid line)) (UniProt P18901); experiment: proximity ligation; In situ PLA (Olink) in differentiated NG-108 cells, control and BD 1047 (10 µmol/L) treated, with mouse anti-D1 and rabbit anti-D2 antibodies, 37 °C; negative controls without one primary antibody
[2] = biological target: dopamine receptor D1 (mouse or rat (endogenous in NG-108, a mouse-rat hybrid line)) (UniProt P18901); experiment: condition: only cells treated with haloperidol (10 µmol/L); proximity ligation; In situ PLA (Olink) in differentiated NG-108 cells treated with haloperidol (10 µmol/L), with mouse anti-D1 and rabbit anti-D2 antibodies, 37 °C
[3] = biological target: type 1 inositol 1,4,5-trisphosphate receptor (mouse or rat (endogenous in NG-108, a mouse-rat hybrid line)) (UniProt P29994); experiment: co-IP; Endogenous proteins from 1 mg detergent-extracted total protein of differentiated NG-108 cells (control, haloperidol 10 µmol/L or BD 1047 10 µmol/L treated); antibody to σ1R (OPRS1) or to IP3R1 on Dynabeads M-280, 4 h at 4 °C, washed with PTA (145 mmol/L NaCl, 0.5% Tween 20, pH 7.0); Western blot of the partner
[4] = biological target: sigma 1 receptor (mouse or rat (endogenous in NG-108, a mouse-rat hybrid line)) (UniProt Q9R0C9); experiment: proximity ligation; In situ PLA (Olink) in differentiated NG-108 cells with rabbit anti-σ1R and mouse anti-IP3R1 antibodies, 37 °C; negative controls without one primary antibody
[5] = biological target: sigma 1 receptor (mouse or rat (endogenous in NG-108, a mouse-rat hybrid line)) (UniProt Q9R0C9); experiment: co-IP; Endogenous proteins from 1 mg detergent-extracted total protein of differentiated NG-108 cells (control, haloperidol 10 µmol/L or BD 1047 10 µmol/L treated); antibody to σ1R (OPRS1) or to IP3R1 on Dynabeads M-280, 4 h at 4 °C, washed with PTA (145 mmol/L NaCl, 0.5% Tween 20, pH 7.0); Western blot of the partner

binding [1]: binds
binding [2]: no binding
Substance: dopamine receptor D2 (from UniProt P61169 1-444)

binding [3]: binds
Substance: sigma 1 receptor (from UniProt Q9R0C9 1-223)

binding [4]: binds
binding [5]: binds
Substance: type 1 inositol 1,4,5-trisphosphate receptor (from UniProt P29994 1-2750)
